In the supplement of paper PMC12823440, “Inhibitors supercharge kinase turnover through native proteolytic circuits” (Nature, 2025):
Counter-ions that a name gives are not always drawn. The list shows a part of the results. Hit calls seldom repeat between salt and free forms of one compound.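 Kinases were expressed as nanoluciferase fusions in K562 cells and luminescence was read every 4 h between 2 and 18 h as percent of control, DMSO set to 100% and a positive control to 0%. A time point counts as decreased when the signal drops significantly (2 sigma). The hit call is the authors' own, does not follow from the count of time points alone, and its rule is not shown.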

Biological target: EGFR_L858R (UniProt P00533)
Test: number of time points (of 5) at which kinase-Nluc abundance scored as decreased, DMSO-normalised (count); higher = more persistent destabilization
Conditions: K562; 2-18 h

Compound | number of time points
O=C1NC(=O)C(c2cn(-c3ccccc3)nc2-c2ccc(F)cc2)N1 (centres undefined) (10 µM) | 0
O=[N+]([O-])c1ccc(Sc2cccc[n+]2[O-])c2nonc12 (2.5 µM) | 0
COc1nc(-c2ccnc(NC(=O)C3CC3)c2)sc1C(N)=O [GSK-3β inhibitor 2] (10 µM) | 0
CCN1/C(=C/C(C)=O)Sc2ccc(OC)cc21 (10 µM) | 1
Nc1cccc(S(=O)(=O)N2CCCN(S(=O)(=O)c3ccc4c(c3)OCCO4)CC2)c1 (10 µM) | 0
Nc1ncc(-c2ccc(C(=O)N3CCNCC3)cc2)nc1-c1ccc(C(F)(F)F)cc1 (10 µM) | 0
CC[C@H](Nc1ncnc2[nH]cnc12)c1oc2ccccc2c(=O)c1-c1cccc(F)c1 [Tenalisib] (10 µM) | 0
CC(C)(O)[C@@H]1CC[C@](C)([C@H]2[C@@H](O)C[C@@]3(C)[C@@H]4C[C@H](O[C@@H]5O[C@H](CO)[C@@H](O)[C@H](O)[C@H]5O)[C@H]5C(C)(C)[C@@H](O[C@@H]6OC[C@@H](O)[C@H](O)[C@H]6O[C@@H]6O[C@H](CO)[C@@H](O)[C@H](O)[C@H]6O)CC[C@@]56C[C@@]46CC[C@]23C)O1 [Astragaloside VI] (10 µM) | 0
CC(=O)Nc1nc2ccc(-c3cnc(C)c(NC(=O)OC4CCCCC4)c3)cc2s1 (10 µM) | 0
COc1ccccc1/C=C1\C(=O)Nc2ccccc21 (10 µM) | 0
CC1(N)CCN(c2cnc3c(-c4cccc(Cl)c4Cl)[nH]nc3n2)CC1 (2.5 µM) | 0
CC(C)C[C@H](NC(=O)[C@H](CCCCN)NC(=O)[C@H](CO)NC(=O)[C@@H](N)CC(C)C)C(N)=O [LSKL, Inhibitor of Thrombospondin (TSP-1) (TFA)] (10 µM) | 0
CN1CC[C@H](c2c(O)cc(O)c3c(=O)cc(-c4ccc(C(F)(F)F)cc4Cl)oc23)[C@H]1CO [(2S,3R)-Voruciclib (hydrochloride)] (2.5 µM) | 0
C[C@H]1[C@H](OC(=O)CCC(=O)O)O[C@@H]2O[C@@]3(C)CC[C@H]4[C@H](C)CC[C@@H]1[C@@]24OO3 [Artesunate] (2.5 µM) | 0
c1ccc(-c2nn3c(c2-c2ccnc4cc(OCCN5CCOCC5)ccc24)CCC3)nc1 (10 µM) | 0
COc1cc(N2CCC(N(C)C)CC2)ccc1Nc1ncc(Cl)c(Nc2ccccc2P(C)(C)=O)n1 (2.5 µM) | 0
Cc1ccc(-c2ncn(-c3ccc(Nc4nccc(-c5cccc(N6CCOCC6)c5)n4)cc3)n2)cn1 (10 µM) | 0
CC[C@@H]1[C@H](F)C(=O)N[C@@H]1COc1nccc2cc(C(N)=O)c(OC)cc12 (10 µM) | 0
O=C1NC(=O)/C(=C/c2ccc(-c3ccc(F)cc3O)o2)S1 (10 µM) | 0
Cc1cc(Nc2cc(CN3CCOCC3)c3nc(C)c(Cc4ccc(Cl)cc4F)n3n2)n[nH]1 [Gandotinib] (2.5 µM) | 0

Compound | number of time points
CN(C)C(=O)c1ccc(S(=O)(=O)c2ccc(NC(=O)[C@@](C)(O)C(F)(F)F)c(Cl)c2)cc1 (10 µM) | 0
CCc1cccc(CC)c1NC(=O)c1nn(C)c2c1CCc1cnc(Nc3ccc(C(=O)NC4CCN(C)CC4)cc3OC(F)(F)F)nc1-2 (2 µM) | 0
O=C(Nc1ccc(Cl)cc1)C1CCCN(C(=O)c2cccc(-c3ccco3)c2)C1 (centres undefined) (2.5 µM) | 0
CN(C)Cc1cccc(N=C(c2ccccc2)c2c(O)[nH]c3cc(C(=O)N(C)C)ccc23)c1 (10 µM) | 0
OCCN(CCO)c1ccc(C(c2ccc(Cl)cc2)c2ccc(N(CCO)CCO)cc2)cc1 (10 µM) | 0
CCOc1ccccc1C=C1C(=O)Nc2ccccc21 (10 µM) | 0
COc1ncc(Nc2ncc([C@@H](C)N3CCN(S(C)(=O)=O)CC3)cc2-c2nc(C)nc(N)n2)cc1F (10 µM) | 0
O=C(CO)N1CCC(c2n[nH]c(-c3ccc(Cl)cc3)c2-c2ccncn2)CC1 (10 µM) | 0
Cn1ncc(Cl)c1-c1cc(C(=O)N[C@H](CN)Cc2ccc(F)c(F)c2)sc1Cl (10 µM) | 0
O=c1ccc2ccc(O)c(O)c2o1 [Daphnetin] (10 µM) | 0
O=C(Nc1ccc(Cl)c(Cl)c1)Nc1ccc2nnsc2c1 (10 µM) | 0
O=C(O)c1cc(O)c2c(c1)[C@@H]([C@H]1c3cc(C(=O)O)cc(O)c3C(=O)c3c(O[C@@H]4O[C@H](CO)[C@@H](O)[C@H](O)[C@H]4O)cccc31)c1cccc(O[C@@H]3O[C@H](CO)[C@@H](O)[C@H](O)[C@H]3O)c1C2=O [Sennoside B] (2.5 µM) | 0
O=c1nc(N2CCOCC2)oc2c(-c3cccc4c3sc3ccccc34)cccc12 (10 µM) | 0
O=C(Nc1cccc(-c2nncn2C2CC2)c1)c1cc(-n2cnc(C3CC3)c2)ccn1 (10 µM) | 0
CSc1ccc(CN2CCCC(Nc3ccc4[nH]ncc4c3)C2)cc1 (centres undefined) [Rho-Kinase-IN-1] (10 µM) | 0
Oc1ccccc1C(=S)N1CCCC1 (10 µM) | 0
COC(=O)N[C@@H](C)CNc1nccc(-c2cn(C(C)C)nc2-c2cc(Cl)cc(NS(C)(=O)=O)c2F)n1 [Encorafenib] (10 µM) | 0
C=CS(=O)(=O)c1ccc(Nc2nc(OCC3CCCCC3)c3[nH]cnc3n2)cc1 (2.5 µM) | 0
O=c1[nH]ccc2cc(OC3CCNCC3)ccc12 (10 µM) | 0

Arranged by length of the SMILES (largest number first): part of the list above
Compound | number of time points
COc1ncc(Nc2ncc([C@@H](C)N3CCN(S(C)(=O)=O)CC3)cc2-c2nc(C)nc(N)n2)cc1F (10 µM) | 0
OCCN(CCO)c1ccc(C(c2ccc(Cl)cc2)c2ccc(N(CCO)CCO)cc2)cc1 (10 µM) | 0
O=C1NC(=O)C(c2cn(-c3ccccc3)nc2-c2ccc(F)cc2)N1 (centres undefined) (10 µM) | 0
